In the supplement of paper PMC12823440, “Inhibitors supercharge kinase turnover through native proteolytic circuits” (Nature, 2025):
Where a name gives a salt, the structure may show the parent alone. Some of the results follow. The calls rarely recur for the same compound in another form.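 In K562 cells expressing nanoluciferase-fused kinases, luminescence was recorded at 4 h intervals between 2 and 18 h, normalized as percent of control with DMSO at 100% and a positive control at 0%. A significant (2 sigma) signal drop marks a time point as decreased. The authors' rule for a hit is not shown and takes in more than the number of time points.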

By UniProt entry, the sequences of proteins in these tests, tags left out. Where a name states a change or a piece, a line headed by the entry shows the natural chain unless it says otherwise.
UniProt P07947, whole entry, looked up: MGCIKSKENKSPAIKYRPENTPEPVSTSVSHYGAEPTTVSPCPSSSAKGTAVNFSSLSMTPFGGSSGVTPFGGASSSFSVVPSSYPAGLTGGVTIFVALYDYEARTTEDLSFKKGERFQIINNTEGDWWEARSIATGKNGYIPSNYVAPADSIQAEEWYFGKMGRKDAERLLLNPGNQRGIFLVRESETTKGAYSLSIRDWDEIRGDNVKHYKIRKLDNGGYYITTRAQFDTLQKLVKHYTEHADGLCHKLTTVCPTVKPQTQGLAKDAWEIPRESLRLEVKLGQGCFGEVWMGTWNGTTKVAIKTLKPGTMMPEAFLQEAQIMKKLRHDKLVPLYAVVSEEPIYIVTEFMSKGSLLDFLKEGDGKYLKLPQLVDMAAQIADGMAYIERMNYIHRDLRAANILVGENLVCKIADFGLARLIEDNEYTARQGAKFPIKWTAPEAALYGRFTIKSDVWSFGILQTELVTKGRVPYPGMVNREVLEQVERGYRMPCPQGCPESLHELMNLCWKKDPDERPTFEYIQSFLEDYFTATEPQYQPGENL
UniProt P43403: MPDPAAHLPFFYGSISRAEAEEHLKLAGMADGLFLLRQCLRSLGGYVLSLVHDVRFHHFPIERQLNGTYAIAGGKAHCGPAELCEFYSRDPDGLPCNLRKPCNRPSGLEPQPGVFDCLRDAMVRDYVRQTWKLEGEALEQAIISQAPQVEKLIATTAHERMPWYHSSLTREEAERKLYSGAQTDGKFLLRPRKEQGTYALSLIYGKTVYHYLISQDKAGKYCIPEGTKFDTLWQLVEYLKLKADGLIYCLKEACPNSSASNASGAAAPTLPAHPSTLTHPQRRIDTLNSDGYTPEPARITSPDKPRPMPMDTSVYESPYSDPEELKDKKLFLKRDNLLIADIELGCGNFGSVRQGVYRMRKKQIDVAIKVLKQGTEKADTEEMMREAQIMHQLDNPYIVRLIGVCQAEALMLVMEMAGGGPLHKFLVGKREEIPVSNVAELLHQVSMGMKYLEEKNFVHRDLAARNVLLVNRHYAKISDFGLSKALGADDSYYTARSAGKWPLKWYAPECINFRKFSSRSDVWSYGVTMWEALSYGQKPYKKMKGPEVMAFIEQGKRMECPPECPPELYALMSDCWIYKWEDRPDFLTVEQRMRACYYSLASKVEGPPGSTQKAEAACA
UniProt P11802: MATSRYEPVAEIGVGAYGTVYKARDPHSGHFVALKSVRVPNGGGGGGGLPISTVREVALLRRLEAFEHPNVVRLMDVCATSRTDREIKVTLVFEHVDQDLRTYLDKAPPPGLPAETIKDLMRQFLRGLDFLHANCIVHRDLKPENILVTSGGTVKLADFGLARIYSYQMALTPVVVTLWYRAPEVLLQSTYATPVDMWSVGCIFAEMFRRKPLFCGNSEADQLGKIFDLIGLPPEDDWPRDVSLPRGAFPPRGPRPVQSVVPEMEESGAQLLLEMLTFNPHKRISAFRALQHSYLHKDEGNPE
UniProt P50613: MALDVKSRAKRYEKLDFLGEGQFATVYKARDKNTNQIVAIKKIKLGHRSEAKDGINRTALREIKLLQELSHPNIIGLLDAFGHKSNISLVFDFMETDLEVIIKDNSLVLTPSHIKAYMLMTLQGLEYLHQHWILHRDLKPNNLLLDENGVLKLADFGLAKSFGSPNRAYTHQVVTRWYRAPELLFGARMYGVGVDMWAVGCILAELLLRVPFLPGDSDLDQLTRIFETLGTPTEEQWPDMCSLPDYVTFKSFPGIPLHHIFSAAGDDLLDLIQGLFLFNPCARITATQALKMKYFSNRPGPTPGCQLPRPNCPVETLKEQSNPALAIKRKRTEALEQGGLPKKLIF
UniProt P50750, whole entry: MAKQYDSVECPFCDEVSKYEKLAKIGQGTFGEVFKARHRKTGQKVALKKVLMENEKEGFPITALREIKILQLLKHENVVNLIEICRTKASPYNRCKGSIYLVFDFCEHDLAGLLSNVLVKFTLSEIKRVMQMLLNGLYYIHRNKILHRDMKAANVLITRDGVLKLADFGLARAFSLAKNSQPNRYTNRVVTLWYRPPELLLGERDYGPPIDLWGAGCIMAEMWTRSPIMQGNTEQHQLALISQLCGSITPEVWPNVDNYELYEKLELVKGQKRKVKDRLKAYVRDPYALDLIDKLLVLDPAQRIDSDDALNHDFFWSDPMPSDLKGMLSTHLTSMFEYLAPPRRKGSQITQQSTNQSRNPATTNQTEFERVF

Key:
Settings in all cases: K562; 2-18 h
YES1 = YES1 (UniProt P07947); test: number of time points (of 5) at which kinase-Nluc abundance scored as decreased, DMSO-normalised (count); higher = more persistent destabilization
ZAK = ZAK (UniProt Q9NYL2); test: as above
ZAP70 = ZAP70 (UniProt P43403); test: as above
CDK4 = CDK4 (UniProt P11802); test: number of time points (of 4; 2 h point missing) at which kinase-Nluc abundance scored as decreased, DMSO-normalised (count); higher = more persistent destabilization
CDK7 = CDK7 (UniProt P50613); test: as above
CDK9 = CDK9 (UniProt P50750); test: as above

Measured: number of time points

Cc1cnc(Nc2ccc(N3CCN(C)CC3)cc2)nc1Nc1cccc(S(=O)(=O)NC(C)(C)C)c1 (2.5 µM)
0: YES1 | ZAK | ZAP70 | CDK4 | CDK7 | CDK9

COC(=O)N[C@@H](C)CNc1nccc(-c2cn(C(C)C)nc2-c2cc(Cl)cc(NS(C)(=O)=O)c2F)n1 [Encorafenib] (10 µM)
0: YES1 | ZAK | ZAP70 | CDK4 | CDK7 | CDK9

CC(C)c1cnn2c(NCc3ccccc3-n3cccn3)nc(OC3CCCNC3)nc12 (centres undefined) (2.5 µM)
0: YES1 | ZAK | ZAP70 | CDK4 | CDK7
1: CDK9

O=c1nc(N2CCOCC2)oc2c(-c3cccc4c3sc3ccccc34)cccc12 (10 µM)
0: YES1 | ZAK | ZAP70 | CDK4 | CDK7 | CDK9

CN1C(=O)NC(Cc2c[nH]c3c(Cl)cccc23)C1=O (racemic) [Necrostatin 2 (racemate)] (10 µM)
0: YES1 | ZAK | ZAP70 | CDK4 | CDK7 | CDK9

CN(C)Cc1cccc(N=C(c2ccccc2)c2c(O)[nH]c3cc(C(N)=O)ccc23)c1 (10 µM)
0: YES1 | ZAK | ZAP70 | CDK4 | CDK7 | CDK9

O=c1[nH]ccc2cc(OC3CCNCC3)ccc12 (10 µM)
0: YES1 | ZAK | ZAP70 | CDK4 | CDK7 | CDK9

O=C(Nc1ccc(Cl)c(Cl)c1)Nc1ccc2nnsc2c1 (10 µM)
0: YES1 | ZAK | ZAP70 | CDK4 | CDK7 | CDK9

O=C1NC(=O)C(c2cn(-c3ccccc3)nc2-c2ccc(F)cc2)N1 (centres undefined) (10 µM)
0: YES1 | ZAK | ZAP70 | CDK4 | CDK7 | CDK9

Random excerpt: 3 compounds from above, in no set order.
CN1C(=O)NC(Cc2c[nH]c3c(Cl)cccc23)C1=O (racemic) [Necrostatin 2 (racemate)] (10 µM)
0: YES1 | ZAK | ZAP70 | CDK4 | CDK7 | CDK9

CN(C)Cc1cccc(N=C(c2ccccc2)c2c(O)[nH]c3cc(C(N)=O)ccc23)c1 (10 µM)
0: YES1 | ZAK | ZAP70 | CDK4 | CDK7 | CDK9

O=C1NC(=O)C(c2cn(-c3ccccc3)nc2-c2ccc(F)cc2)N1 (centres undefined) (10 µM)
0: YES1 | ZAK | ZAP70 | CDK4 | CDK7 | CDK9

(cont.)

N=C(N)NC(=N)NCCc1ccccc1 [Phenformin (hydrochloride)] (10 µM)
0: YES1 | ZAK | ZAP70 | CDK4 | CDK7 | CDK9

COc1cc(N2CCC(O)CC2)ccc1Nc1cc(Nc2ccccc2S(=O)(=O)C(C)C)c2cc[nH]c2n1 (10 µM)
0: YES1 | ZAK | ZAP70 | CDK4 | CDK7 | CDK9

CC(C)(C)C(=O)N1N=CC[C@H]1c1ccccc1 (10 µM)
0: YES1 | ZAK | ZAP70 | CDK4 | CDK7 | CDK9

Cc1cc(Nc2cc(CN3CCOCC3)c3nc(C)c(Cc4ccc(Cl)cc4F)n3n2)n[nH]1 [Gandotinib] (2.5 µM)
0: YES1 | ZAK | ZAP70 | CDK4 | CDK7 | CDK9

C=CS(=O)(=O)c1ccc(Nc2nc(OCC3CCCCC3)c3[nH]cnc3n2)cc1 (2.5 µM)
0: YES1 | ZAK | ZAP70 | CDK4 | CDK7 | CDK9

c1ccc(-c2oc3ncnc(NC[C@@H]4CCCO4)c3c2-c2ccccc2)cc1 (2.5 µM)
0: YES1 | ZAK | ZAP70 | CDK4 | CDK7 | CDK9

Cc1cc(Nc2nc(N[C@@H](C)c3ncc(F)cn3)ncc2Cl)[nH]n1 (10 µM)
0: YES1 | ZAK | ZAP70 | CDK4 | CDK7 | CDK9

CCCNC(=O)c1cn2ncnc(Nc3cc(C(=O)NC4CC4)ccc3C)c2c1C (10 µM)
0: YES1 | ZAK | ZAP70 | CDK4 | CDK7 | CDK9

N#C/C(=C(/N)Sc1ccc(N)cc1)c1ccccc1C(F)(F)F (10 µM)
0: YES1 | ZAK | ZAP70 | CDK4 | CDK7 | CDK9

CC[C@@H](N)CNc1ccnc(-c2cc(-c3cnn(C)c3)ccc2O)n1 (2.5 µM)
0: YES1 | ZAK | ZAP70 | CDK4 | CDK7 | CDK9

Cc1ccc(-c2ncn(-c3ccc(Nc4nccc(-c5cccc(N6CCOCC6)c5)n4)cc3)n2)cn1 (10 µM)
0: YES1 | ZAK | ZAP70 | CDK4 | CDK7 | CDK9

NC(=O)c1ccc(-c2cnn3ccc(NCc4cccnc4)nc23)cc1 (2.5 µM)
0: YES1 | ZAK | ZAP70 | CDK4 | CDK7 | CDK9

CC[C@H](C)[C@H](NC(=O)[C@H](CCC(=O)O)NC(=O)[C@H](CCCN=C(N)N)NC(=O)[C@H](CCCN=C(N)N)NC(=O)[C@@H](N)CCCCN)C(=O)N[C@@H](CC(C)C)C(=O)N[C@@H](CO)C(=O)N[C@@H](CCCN=C(N)N)C(=O)N[C@@H](CCCN=C(N)N)C(=O)N1CCC[C@H]1C(=O)N[C@@H](CO)C(=O)N[C@@H](Cc1ccc(O)cc1)C(=O)N[C@@H](CCCN=C(N)N)C(=O)O [CREBtide] (10 µM)
0: YES1 | ZAK | ZAP70 | CDK4 | CDK7 | CDK9

COc1ccc(CNc2nc(N(CCO)CCO)nc3c2ncn3C(C)C)cc1 (2.5 µM)
0: YES1 | ZAK | ZAP70 | CDK4 | CDK7 | CDK9

O=C(O)c1cc(O)c2c(c1)[C@@H]([C@H]1c3cc(C(=O)O)cc(O)c3C(=O)c3c(O[C@@H]4O[C@H](CO)[C@@H](O)[C@H](O)[C@H]4O)cccc31)c1cccc(O[C@@H]3O[C@H](CO)[C@@H](O)[C@H](O)[C@H]3O)c1C2=O [Sennoside B] (2.5 µM)
0: YES1 | ZAK | ZAP70 | CDK4 | CDK7 | CDK9

CCN1/C(=C/C(C)=O)Sc2ccc(OC)cc21 (10 µM)
0: ZAP70 | CDK4 | CDK7
1: ZAK | CDK9
2: YES1

CCOc1c([C@H](C)n2nc(C)c3c(N)ncnc32)cc(Cl)c(F)c1[C@@H]1CNC(=O)C1 [Parsaclisib (hydrochloride)] (10 µM)
0: YES1 | ZAK | ZAP70 | CDK4 | CDK7 | CDK9

COc1ccc2c(c1)c(C1=C(c3c[nH]c4ccccc34)C(=O)NC1=O)cn2CCCN(C)C (10 µM)
4: CDK9
3: CDK7
0: YES1 | ZAK | ZAP70 | CDK4

CN(C)c1nc2c(Br)c(Br)c(Br)c(Br)c2n1CC(=O)O (10 µM)
0: YES1 | ZAK | ZAP70 | CDK4 | CDK7 | CDK9

COc1nc(-c2ccnc(NC(=O)C3CC3)c2)sc1C(N)=O [GSK-3β inhibitor 2] (10 µM)
0: YES1 | ZAK | ZAP70 | CDK4 | CDK7 | CDK9

COc1ccc(CN2C3CC2CN(c2ccc(-c4cc(OCC(C)(C)O)cn5ncc(C#N)c45)cn2)C3)cn1 [Selpercatinib] (10 µM)
0: YES1 | ZAK | ZAP70 | CDK4 | CDK7 | CDK9

O=C(O)c1ccc(-c2c[nH]c3ncc(-c4ccccc4)cc23)cc1C1CCCC1 (2.5 µM)
0: YES1 | ZAK | ZAP70 | CDK4 | CDK9
1: CDK7

CC(C)(C)c1cc(C(c2cc3c(cc2O)OCO3)N2CCOCC2)cc(C(C)(C)C)c1O (centres undefined) (2.5 µM)
0: YES1 | ZAK | ZAP70 | CDK4 | CDK7 | CDK9

O=C(O)c1ccc(N2N=C(Cc3ccccc3)C(=Cc3ccc(-c4ccccc4F)o3)C2=O)cc1 (10 µM)
0: YES1 | ZAK | ZAP70 | CDK4 | CDK7 | CDK9

C=C(F)C(=O)N1CCN(c2nc(OC[C@@H]3CCCN3C)nc3c2CCN(c2cccc4cccc(Cl)c24)C3)C[C@@H]1CC#N (2.5 µM)
0: YES1 | ZAK | ZAP70 | CDK4 | CDK7 | CDK9
